Source: PubChem BioAssay AID743448 (Peter MacCallum Cancer Centre, 2014)

Purpose: 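Find knock-downs giving vorinostat-specific cell death in several colon cancer lines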 (follow-up of hits)
System: four human colon cancer cell lines: HCT116-VR (vorinostat-resistant HCT116 derivative), SW480, SW620 and LIM1215
Reagent: siRNA pool against human genes, 40 nM siRNA pool
Timing: drug added two days after transfection, read one day later
Conditions: vorinostat 2.5 µM on one half of each plate, etoposide 5 µM on the other half
Cell line and drug panel: SW620 cells with etoposide
Measurement: 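Caspase luminescence and viability fluorescence, each expressed relative to mock transfection and also as robust z-scores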
Reading the numbers: caspase ratio to mock: higher = more caspase activity than mock; viability ratio to mock: higher = more live cells than mock
Rule for the call: 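Hit means caspase ratio to mock at least 1.6, or viability ratio to mock at most 0.75; wells with strong death in the absence of drug get no call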
Meaning of the calls: active = caspase or viability hit in this panel; inactive = no change, or unhealthy well
This is a random part of the 106 reagents, in one setting of the screen. 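Calls are per line and drug panel including etoposide, not vorinostat-specific; gene picks needed hits in two or more extra lines with vorinostat versus etoposide.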 Entries without a mark were called inactive. Not all columns of the deposit are shown.

OSBPL6 (oxysterol binding protein like 6) gave caspase ratio to mock 1.32; viability ratio to mock 1.02.
Knock-down of MED28 (mediator complex subunit 28) resulted in: caspase ratio to mock 1.08; viability ratio to mock 0.87.
MSANTD1 (Myb/SANT DNA binding domain containing 1) gave caspase ratio to mock 1.67 (active); viability ratio to mock 0.9.
Depletion of NUP205 (nucleoporin 205) came out at: caspase ratio to mock 1.5 (active); viability ratio to mock 0.75.
Against KIR2DL1 the deposit lists caspase ratio to mock 0.92; viability ratio to mock 1.14.
Against SLU7 (spliceosome associated SLU7), the values are caspase ratio to mock 1.31 (active); viability ratio to mock 0.66.
Knock-down of DDX18 (DEAD-box helicase 18) gave: caspase ratio to mock 0.43 (active); viability ratio to mock 0.74.
With knock-down of GLI1 (GLI family zinc finger 1), the record shows caspase ratio to mock 1.05; viability ratio to mock 0.9.
For VAX1 (ventral anterior homeobox 1), the entry reads caspase ratio to mock 1.01; viability ratio to mock 0.96.
With knock-down of TOX4 (TOX high mobility group box family member 4), the record shows caspase ratio to mock 0.69; viability ratio to mock 0.88.
After knock-down of NPC1L1 (NPC1 like intracellular cholesterol transporter 1), the record shows caspase ratio to mock 1.29; viability ratio to mock 0.97.
EIF2B5 (eukaryotic translation initiation factor 2B subunit epsilon) gave caspase ratio to mock 1.07; viability ratio to mock 0.77.

Just “viability ratio to mock” (2 entries from above):
GLI1 (GLI family zinc finger 1) = 0.9
VAX1 (ventral anterior homeobox 1) = 0.96
